# The list shows a part of the results.
# Amino acid sequences for entries named in this document (tags omitted). A change or cut given only in a name is not applied to a line headed by its entry.
# UniProt Q96JM7: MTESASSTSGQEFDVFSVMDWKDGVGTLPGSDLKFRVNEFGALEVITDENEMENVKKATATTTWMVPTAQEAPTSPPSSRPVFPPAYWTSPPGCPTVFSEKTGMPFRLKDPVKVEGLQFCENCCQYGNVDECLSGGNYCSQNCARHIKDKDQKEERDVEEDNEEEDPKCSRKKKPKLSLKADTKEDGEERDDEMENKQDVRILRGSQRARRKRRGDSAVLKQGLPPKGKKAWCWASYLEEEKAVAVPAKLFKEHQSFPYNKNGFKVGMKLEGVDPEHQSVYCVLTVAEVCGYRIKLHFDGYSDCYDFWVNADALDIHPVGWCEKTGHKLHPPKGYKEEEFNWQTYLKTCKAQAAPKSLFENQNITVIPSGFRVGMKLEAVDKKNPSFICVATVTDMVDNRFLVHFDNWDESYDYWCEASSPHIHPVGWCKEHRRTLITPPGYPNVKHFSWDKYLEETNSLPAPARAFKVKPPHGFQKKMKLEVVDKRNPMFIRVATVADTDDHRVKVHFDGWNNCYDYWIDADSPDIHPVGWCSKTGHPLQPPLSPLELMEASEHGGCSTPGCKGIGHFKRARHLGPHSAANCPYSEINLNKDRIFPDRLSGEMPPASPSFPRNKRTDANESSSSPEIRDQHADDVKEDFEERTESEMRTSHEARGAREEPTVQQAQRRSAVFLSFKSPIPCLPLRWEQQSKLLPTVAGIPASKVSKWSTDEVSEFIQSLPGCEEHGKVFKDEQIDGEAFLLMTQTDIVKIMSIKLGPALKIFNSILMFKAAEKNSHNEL
# UniProt Q8WZ60: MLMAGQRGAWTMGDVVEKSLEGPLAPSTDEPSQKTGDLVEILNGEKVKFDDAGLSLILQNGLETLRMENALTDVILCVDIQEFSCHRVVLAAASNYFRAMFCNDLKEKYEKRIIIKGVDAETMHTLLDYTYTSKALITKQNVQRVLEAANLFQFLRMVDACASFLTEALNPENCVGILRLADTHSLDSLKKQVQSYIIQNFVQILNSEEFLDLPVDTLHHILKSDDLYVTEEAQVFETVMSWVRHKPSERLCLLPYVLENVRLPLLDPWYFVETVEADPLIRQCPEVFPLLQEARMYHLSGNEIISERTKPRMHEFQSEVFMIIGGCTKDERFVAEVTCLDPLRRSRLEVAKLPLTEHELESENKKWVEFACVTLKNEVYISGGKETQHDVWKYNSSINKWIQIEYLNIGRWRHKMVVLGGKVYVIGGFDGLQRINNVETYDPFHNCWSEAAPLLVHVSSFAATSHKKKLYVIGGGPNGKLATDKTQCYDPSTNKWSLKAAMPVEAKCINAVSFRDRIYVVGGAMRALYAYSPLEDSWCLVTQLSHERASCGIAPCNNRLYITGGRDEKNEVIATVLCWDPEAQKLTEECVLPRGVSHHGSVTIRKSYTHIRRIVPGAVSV
# UniProt Q8NG31: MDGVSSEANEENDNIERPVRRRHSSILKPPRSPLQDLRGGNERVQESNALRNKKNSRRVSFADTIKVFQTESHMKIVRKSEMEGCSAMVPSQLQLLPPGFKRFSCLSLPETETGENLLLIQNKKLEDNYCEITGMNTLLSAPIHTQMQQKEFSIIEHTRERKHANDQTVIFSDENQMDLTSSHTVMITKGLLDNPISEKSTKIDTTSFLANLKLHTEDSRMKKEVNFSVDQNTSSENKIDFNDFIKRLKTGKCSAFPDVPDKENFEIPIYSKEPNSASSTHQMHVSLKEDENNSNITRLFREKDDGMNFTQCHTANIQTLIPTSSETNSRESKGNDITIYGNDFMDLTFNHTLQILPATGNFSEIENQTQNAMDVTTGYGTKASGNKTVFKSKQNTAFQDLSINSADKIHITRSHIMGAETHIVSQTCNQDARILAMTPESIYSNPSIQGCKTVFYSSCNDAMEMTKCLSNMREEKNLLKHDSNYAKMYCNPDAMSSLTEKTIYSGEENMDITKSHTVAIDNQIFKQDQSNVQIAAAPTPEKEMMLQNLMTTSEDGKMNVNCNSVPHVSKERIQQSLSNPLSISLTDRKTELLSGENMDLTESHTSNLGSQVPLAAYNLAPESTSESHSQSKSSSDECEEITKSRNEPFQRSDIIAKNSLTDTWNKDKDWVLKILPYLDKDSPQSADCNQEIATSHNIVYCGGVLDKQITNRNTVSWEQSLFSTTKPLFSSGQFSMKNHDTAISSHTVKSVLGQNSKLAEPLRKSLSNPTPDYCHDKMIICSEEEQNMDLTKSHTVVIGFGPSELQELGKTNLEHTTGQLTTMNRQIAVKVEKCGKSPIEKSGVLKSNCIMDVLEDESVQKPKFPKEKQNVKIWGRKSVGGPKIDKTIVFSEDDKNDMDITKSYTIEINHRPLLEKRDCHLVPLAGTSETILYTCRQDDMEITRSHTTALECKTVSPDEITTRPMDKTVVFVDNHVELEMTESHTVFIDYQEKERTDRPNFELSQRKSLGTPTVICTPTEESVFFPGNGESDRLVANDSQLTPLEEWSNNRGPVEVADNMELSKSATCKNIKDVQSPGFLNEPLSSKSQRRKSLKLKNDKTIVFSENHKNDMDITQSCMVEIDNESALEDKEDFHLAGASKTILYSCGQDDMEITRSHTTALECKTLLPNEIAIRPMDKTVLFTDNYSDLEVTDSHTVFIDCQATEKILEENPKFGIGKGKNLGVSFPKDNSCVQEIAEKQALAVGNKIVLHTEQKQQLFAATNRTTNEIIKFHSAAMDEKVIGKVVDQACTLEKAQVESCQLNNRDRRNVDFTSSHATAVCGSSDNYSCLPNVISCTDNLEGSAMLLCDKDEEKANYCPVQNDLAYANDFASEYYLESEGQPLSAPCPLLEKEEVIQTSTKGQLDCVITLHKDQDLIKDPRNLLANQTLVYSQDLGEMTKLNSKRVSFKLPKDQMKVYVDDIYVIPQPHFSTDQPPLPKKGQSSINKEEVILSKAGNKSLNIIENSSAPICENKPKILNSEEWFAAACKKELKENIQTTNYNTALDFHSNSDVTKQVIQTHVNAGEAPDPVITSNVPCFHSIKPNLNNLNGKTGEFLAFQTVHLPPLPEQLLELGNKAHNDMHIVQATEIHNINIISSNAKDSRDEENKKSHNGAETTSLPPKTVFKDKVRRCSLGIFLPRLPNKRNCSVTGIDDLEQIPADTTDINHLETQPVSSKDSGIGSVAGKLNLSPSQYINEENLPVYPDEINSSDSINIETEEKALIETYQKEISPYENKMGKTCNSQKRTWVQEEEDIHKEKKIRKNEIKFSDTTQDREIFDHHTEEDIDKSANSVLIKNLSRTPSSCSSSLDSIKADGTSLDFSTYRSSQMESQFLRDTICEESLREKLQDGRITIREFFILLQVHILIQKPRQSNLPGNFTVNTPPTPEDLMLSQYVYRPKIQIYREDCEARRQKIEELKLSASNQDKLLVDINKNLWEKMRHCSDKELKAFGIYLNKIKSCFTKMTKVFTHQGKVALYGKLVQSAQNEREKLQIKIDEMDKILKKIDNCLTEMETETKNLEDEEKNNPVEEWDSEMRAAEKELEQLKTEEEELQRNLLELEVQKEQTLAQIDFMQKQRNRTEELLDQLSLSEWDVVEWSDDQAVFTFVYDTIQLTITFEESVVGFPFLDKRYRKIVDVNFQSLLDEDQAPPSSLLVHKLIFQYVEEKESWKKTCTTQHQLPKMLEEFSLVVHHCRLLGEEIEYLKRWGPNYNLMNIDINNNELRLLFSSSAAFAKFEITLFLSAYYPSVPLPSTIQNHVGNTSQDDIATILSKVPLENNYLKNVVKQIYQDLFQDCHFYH
# UniProt Q9UN81: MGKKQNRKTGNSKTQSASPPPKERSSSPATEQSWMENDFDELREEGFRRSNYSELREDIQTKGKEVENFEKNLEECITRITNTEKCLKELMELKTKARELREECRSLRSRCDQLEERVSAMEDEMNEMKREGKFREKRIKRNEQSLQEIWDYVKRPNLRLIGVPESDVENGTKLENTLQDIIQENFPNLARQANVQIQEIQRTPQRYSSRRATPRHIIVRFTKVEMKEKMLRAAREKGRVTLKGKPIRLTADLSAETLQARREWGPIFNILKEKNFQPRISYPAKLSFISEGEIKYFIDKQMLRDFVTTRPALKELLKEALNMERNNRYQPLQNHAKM
# UniProt Q96JN0: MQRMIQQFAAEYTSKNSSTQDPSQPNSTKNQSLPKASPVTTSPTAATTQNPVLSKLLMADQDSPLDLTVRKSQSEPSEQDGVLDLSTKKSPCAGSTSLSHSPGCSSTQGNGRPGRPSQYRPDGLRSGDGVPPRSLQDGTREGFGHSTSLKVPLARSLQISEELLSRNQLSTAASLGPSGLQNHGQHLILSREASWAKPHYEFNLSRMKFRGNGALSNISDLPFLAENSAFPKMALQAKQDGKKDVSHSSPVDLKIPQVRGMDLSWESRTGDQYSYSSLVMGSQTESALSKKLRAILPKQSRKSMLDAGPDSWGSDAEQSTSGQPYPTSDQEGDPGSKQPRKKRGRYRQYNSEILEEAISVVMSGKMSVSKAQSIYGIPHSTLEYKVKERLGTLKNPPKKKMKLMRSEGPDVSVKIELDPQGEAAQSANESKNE
# UniProt P28838: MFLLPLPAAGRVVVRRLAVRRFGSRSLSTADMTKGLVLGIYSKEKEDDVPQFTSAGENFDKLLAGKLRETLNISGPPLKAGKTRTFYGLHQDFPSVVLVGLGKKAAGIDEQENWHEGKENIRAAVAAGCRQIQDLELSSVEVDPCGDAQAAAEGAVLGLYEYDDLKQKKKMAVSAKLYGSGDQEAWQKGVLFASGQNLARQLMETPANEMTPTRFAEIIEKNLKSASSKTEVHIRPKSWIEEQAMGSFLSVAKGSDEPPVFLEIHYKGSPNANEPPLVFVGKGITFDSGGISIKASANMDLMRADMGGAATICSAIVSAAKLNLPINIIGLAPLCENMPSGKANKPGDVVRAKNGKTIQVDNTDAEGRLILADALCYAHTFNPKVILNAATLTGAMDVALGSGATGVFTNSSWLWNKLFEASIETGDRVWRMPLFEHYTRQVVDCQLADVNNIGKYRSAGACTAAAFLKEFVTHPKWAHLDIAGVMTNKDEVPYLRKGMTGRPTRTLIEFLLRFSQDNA
# UniProt Q14974, whole entry, looked up: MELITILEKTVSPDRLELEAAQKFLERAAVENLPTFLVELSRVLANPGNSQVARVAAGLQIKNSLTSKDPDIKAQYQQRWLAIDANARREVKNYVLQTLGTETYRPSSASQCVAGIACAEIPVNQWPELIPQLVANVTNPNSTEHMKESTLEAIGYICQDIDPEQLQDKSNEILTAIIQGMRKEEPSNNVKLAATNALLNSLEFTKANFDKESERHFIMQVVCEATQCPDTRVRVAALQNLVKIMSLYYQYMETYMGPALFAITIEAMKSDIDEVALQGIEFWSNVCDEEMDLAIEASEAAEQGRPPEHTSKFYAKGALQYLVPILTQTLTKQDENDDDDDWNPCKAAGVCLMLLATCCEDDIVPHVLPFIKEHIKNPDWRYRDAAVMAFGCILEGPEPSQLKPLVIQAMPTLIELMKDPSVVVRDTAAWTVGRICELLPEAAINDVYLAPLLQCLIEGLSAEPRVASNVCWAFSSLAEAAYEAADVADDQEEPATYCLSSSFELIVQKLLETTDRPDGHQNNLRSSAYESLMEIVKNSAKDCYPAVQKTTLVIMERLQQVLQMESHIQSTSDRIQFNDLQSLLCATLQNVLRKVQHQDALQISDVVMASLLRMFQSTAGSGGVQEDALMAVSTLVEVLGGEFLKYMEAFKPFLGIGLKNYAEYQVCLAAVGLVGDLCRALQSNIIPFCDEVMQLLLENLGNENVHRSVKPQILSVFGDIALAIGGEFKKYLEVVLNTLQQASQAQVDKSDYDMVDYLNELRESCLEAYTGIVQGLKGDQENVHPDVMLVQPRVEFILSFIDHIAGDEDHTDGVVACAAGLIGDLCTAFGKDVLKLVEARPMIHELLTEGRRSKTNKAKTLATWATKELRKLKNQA
# UniProt Q9Y664: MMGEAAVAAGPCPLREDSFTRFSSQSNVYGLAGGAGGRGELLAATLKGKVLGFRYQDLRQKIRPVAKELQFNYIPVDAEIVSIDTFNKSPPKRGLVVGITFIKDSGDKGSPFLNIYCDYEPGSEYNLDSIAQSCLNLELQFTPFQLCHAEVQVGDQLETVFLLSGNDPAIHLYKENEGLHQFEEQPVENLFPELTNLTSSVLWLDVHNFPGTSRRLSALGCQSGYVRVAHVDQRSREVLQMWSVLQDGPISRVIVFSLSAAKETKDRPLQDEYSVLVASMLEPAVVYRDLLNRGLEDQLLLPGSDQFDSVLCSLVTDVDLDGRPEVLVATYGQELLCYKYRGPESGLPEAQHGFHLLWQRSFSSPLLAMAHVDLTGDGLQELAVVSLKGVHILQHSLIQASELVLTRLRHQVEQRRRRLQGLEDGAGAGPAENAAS
# Compound: CC1Cc2ccccc2N1C(=O)C1CCCN(C1)C(=O)CCl (mixture of isomers) [TRIM25 ligand 11 (diastereomer mixture)]
# Assay: probe-labelled cysteine peptide fold change vs DMSO (competition) (log2 fold change); higher = less target engagement (more negative = stronger competition)
# Settings: THP-1, incubation time: 4 h
# 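Also: competitive chemoproteomic profiling in live THP-1 cells with an iodoacetamide desthiobiotin (IA-DTB) probe, comparing probe-labelled peptide intensities in compound-treated cells against DMSO-treated controls.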
Target,probe-labelled cysteine peptide fold change (10 µM),probe-labelled cysteine peptide fold change (50 µM)
L3MBTL3_Q96JM7_723_WSTDEVSEFIQSLPGCEEHGK (UniProt Q96JM7),0.0157,0.25
KTI12_Q96EK9_103_TPLCLVYCVRPGGPIAGPQVAGANENPGR (UniProt Q96EK9),-0.283,-0.123
KPNA4_O00629_122_SGILPILVHCLER (UniProt O00629),0.124,0.197
KLHL6_Q8WZ60_252_LCLLPYVLENVR (UniProt Q8WZ60),0.147,-0.0158
KYNU_Q16719_45_HFRECFYIPK (UniProt Q16719),-0.542,-0.3
KLC1_Q07866_349_QLNNLALLCQNQGK (UniProt Q07866),-0.073,0.0754
KIF4A_O95239_965_CQDEELEK (UniProt O95239),0.0357,-0.113
KLHL6_Q8WZ60_539_ALYAYSPLEDSWCLVTQLSHER (UniProt Q8WZ60),0.286,0.325
KIFC1_Q9BW19_95_CSTAIATGLK (UniProt Q9BW19),-0.169,-0.282
KPNA3_O00505_417_DQVEYLVQQNVIPPFCNLLSVK (UniProt O00505),0.0868,0.14
KTN1_Q86UP2_303_TMMFSEDEALCVVDLLK (UniProt Q86UP2),0.0102,-0.253
KNL1_Q8NG31_1301_AQVESCQLNNR (UniProt Q8NG31),-0.0981,-0.124
LARP1_Q6PKG0_1054_RCPSQSSSR (UniProt Q6PKG0),0.05,0.105
LDAH_Q9H6V9_274_LTFYYGTIDPWCPK (UniProt Q9H6V9),-0.0349,-0.0608
KLHDC4_Q8TBB5_120_CAHQAVVVPQGGGQLWVFGGEFASPNGEQFYHYK (UniProt Q8TBB5),-0.0549,-0.128
L1RE1_Q9UN81_111_CDQLEER (UniProt Q9UN81),-0.4,0.0961
LCOR_Q96JN0-3_304_ILEGQTTGQEQDTNVNICEDGK (UniProt Q96JN0),0.173,0.0886
KIF1C_O43896_685_SCEESWR (UniProt O43896),0.0708,-0.145
LCP1_P13796_283_WANYHLENAGCNK (UniProt P13796),0.0121,0.146
KNL1_Q8NG31_2338_QIYQDLFQDCHFYH (UniProt Q8NG31),-0.126,-0.0766
LANCL2_Q9NS86_169_SDCESQECVTK (UniProt Q9NS86),0.245,0.229
LAP3_P28838_376_LILADALCYAHTFNPK (UniProt P28838),-0.0305,0.105
LAMP5_Q9UJQ1_182_SYECQAQQTISLASSDPQK (UniProt Q9UJQ1),0.355,0.0549
KPNB1_Q14974_392_DAAVMAFGCILEGPEPSQLK (UniProt Q14974),0.124,0.208
LAP3_P28838_335_LNLPINIIGLAPLCENMPSGK (UniProt P28838),-0.118,-0.173
KPTN_Q9Y664_221_RLSALGCQSGYVR (UniProt Q9Y664),-0.00935,0.154
KPNB1_Q14974_359_AAGVCLMLLATCCEDDIVPHVLPFIK (UniProt Q14974),-0.313,-0.0267
KPNB1_Q14974_667_NYAEYQVCLAAVGLVGDLCR (UniProt Q14974),0.21,0.214

# Reference: the supplement of paper PMC12067093, “Discovery and optimisation of a covalent ligand for TRIM25 and its application to targeted protein ubiquitination” (Chemical Science, 2025)
